# Assay results published in the supplement of paper PMC8728848.
# The list shows a part of the results.
# B1: Epa8 (Candida glabrata) (protein)
# chain: MGSSHHHHHHSSGLVPRGSHMASSRALSDYPLGCSPLLGTKLTPGLSMELYEYPLDNHGIGPHCWDPAYLNPEYPRTGFESHKLIGTAQNVMSLNFEHRTQDCHVEFSNLPASFNFPDQITLTNFTMLLYGYFKPKESGRYRFHMEADDLLLMNLGAGNAFDCCAHEATRNNLGDYIAYDIWAGTRKDVEVFLEKEVFYPLRLFFNNRDGRAALDFSYYLNGATEPGTDIPELLFSLPDGESCPAYI
# Assays:
# Assay in all cases: glycan array binding signal (z-score within array); higher = stronger binding
# Conditions in all cases: glycan notation: IUPAC condensed, linker removed
# [1] = target: Neu5Ac(a2-3)Gal(b1-3)GlcNAc
# Summary of the method: (§1)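 The binding signal is a Z-score computed within each array. Data were drawn from 3228 arrays in the Consortium for Functional Glycomics database, restricted to those with a known protein sequence. Scores were averaged over arrays of the same protein sequence at different concentrations or buffers, and over linkers, and negative values can be taken as non-binding.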
# [2] = target: Neu5Ac(a2-3)Gal(b1-3)GlcNAc(b1-2)Man
# Summary of the method: as §1
# [3] = target: Neu5Ac(a2-3)Gal(b1-3)GlcNAc(b1-2)Man(a1-3)[GlcNAc(b1-4)][Neu5Ac(a2-3)Gal(b1-3)GlcNAc(b1-2)Man(a1-6)]Man(b1-4)GlcNAc(b1-4)GlcNAc
# Summary of the method: as §1
# [4] = target: Neu5Ac(a2-3)Gal(b1-3)GlcNAc(b1-2)Man(a1-3)[Neu5Ac(a2-3)Gal(b1-3)GlcNAc(b1-2)Man(a1-6)]Man(b1-4)GlcNAc(b1-4)GlcNAc
# Summary of the method: as §1
# [5] = target: Neu5Ac(a2-3)Gal(b1-3)GlcNAc(b1-2)[Neu5Ac(a2-3)Gal(b1-3)GlcNAc(b1-4)]Man(a1-6)[Neu5Ac(a2-3)Gal(b1-3)GlcNAc(b1-2)Man(a1-3)]Man(b1-4)GlcNAc(b1-4)GlcNAc
# Summary of the method: as §1
# [6] = target: Neu5Ac(a2-3)Gal(b1-3)GlcNAc(b1-3)Gal(b1-3)GlcNAc
# Summary of the method: as §1
# [7] = target: Neu5Ac(a2-3)Gal(b1-3)GlcNAc(b1-3)Gal(b1-4)GlcNAc
# Summary of the method: as §1
# [8] = target: Neu5Ac(a2-3)Gal(b1-3)GlcNAc(b1-3)GalNAc
# Summary of the method: as §1
# [9] = target: Neu5Ac(a2-3)Gal(b1-3)GlcNAc(b1-6)GalNAc
# Summary of the method: as §1
# [10] = target: Neu5Ac(a2-3)Gal(b1-3)GlcNAc6S
# Summary of the method: as §1
# [11] = target: Neu5Ac(a2-3)Gal(b1-3)[Fuc(a1-4)]GlcNAc
# Summary of the method: as §1
# [12] = target: Neu5Ac(a2-3)Gal(b1-3)[Fuc(a1-4)]GlcNAc(b1-3)Gal(b1-3)[Fuc(a1-4)]GlcNAc
# Summary of the method: as §1
# [13] = target: Neu5Ac(a2-3)Gal(b1-3)[Fuc(a1-4)]GlcNAc(b1-3)Gal(b1-4)[Fuc(a1-3)]GlcNAc
# Summary of the method: as §1
# [14] = target: Neu5Ac(a2-3)Gal(b1-3)[GlcNAc(b1-6)]GalNAc
# Summary of the method: as §1
# [15] = target: Neu5Ac(a2-3)Gal(b1-3)[Neu5Ac(a2-6)]GalNAc
# Summary of the method: as §1
# [16] = target: Neu5Ac(a2-3)Gal(b1-3)[Neu5Ac(a2-6)]GlcNAc(b1-3)[Fuc(a1-3)[Gal(b1-4)]GlcNAc(b1-6)]Gal(b1-4)Glc
# Summary of the method: as §1
# [17] = target: Neu5Ac(a2-3)Gal(b1-3)]Neu5Ac(a2-3)Gal(b1-4)]GlcNAc
# Summary of the method: as §1
# Neu5Ac(a2-3)Gal(b1-4)Glc = target: Neu5Ac(a2-3)Gal(b1-4)Glc
# Summary of the method: as §1
# [18] = target: Neu5Ac(a2-3)Gal(b1-4)GlcNAc
# Summary of the method: as §1
# [19] = target: Neu5Ac(a2-3)Gal(b1-4)GlcNAc(b1-2)Man
# Summary of the method: as §1
# [20] = target: Neu5Ac(a2-3)Gal(b1-4)GlcNAc(b1-2)Man(a1-3)[GlcNAc(b1-4)][Neu5Ac(a2-3)Gal(b1-4)GlcNAc(b1-2)Man(a1-6)]Man(b1-4)GlcNAc(b1-4)GlcNAc
# Summary of the method: as §1
# [21] = target: Neu5Ac(a2-3)Gal(b1-4)GlcNAc(b1-2)Man(a1-3)[Neu5Ac(a2-3)Gal(b1-4)GlcNAc(b1-2)Man(a1-6)]Man(b1-4)GlcNAc(b1-4)GlcNAc
# Summary of the method: as §1
# [22] = target: Neu5Ac(a2-3)Gal(b1-4)GlcNAc(b1-2)Man(a1-3)[Neu5Ac(a2-3)Gal(b1-4)GlcNAc(b1-2)Man(a1-6)]Man(b1-4)GlcNAc(b1-4)[Fuc(a1-6)]GlcNAc
# Summary of the method: as §1
# [23] = target: Neu5Ac(a2-3)Gal(b1-4)GlcNAc(b1-2)Man(a1-3)[Neu5Ac(a2-6)Gal(b1-4)GlcNAc(b1-2)Man(a1-6)]Man(b1-4)GlcNAc(b1-4)GlcNAc
# Summary of the method: as §1
# [24] = target: Neu5Ac(a2-3)Gal(b1-4)GlcNAc(b1-2)[Neu5Ac(a2-3)Gal(b1-4)GlcNAc(b1-4)]Man(a1-3)[GlcNAc(b1-4)][Neu5Ac(a2-3)Gal(b1-4)GlcNAc(b1-2)[Neu5Ac(a2-3)Gal(b1-4)GlcNAc(b1-6)]Man(a1-6)]Man(b1-4)GlcNAc(b1-4)GlcNAc
# Summary of the method: as §1
# [25] = target: Neu5Ac(a2-3)Gal(b1-4)GlcNAc(b1-2)[Neu5Ac(a2-3)Gal(b1-4)GlcNAc(b1-4)]Man(a1-3)[GlcNAc(b1-4)][Neu5Ac(a2-3)Gal(b1-4)GlcNAc(b1-4)Man(a1-6)]Man(b1-4)GlcNAc(b1-4)GlcNAc
# Summary of the method: as §1
# [26] = target: Neu5Ac(a2-3)Gal(b1-4)GlcNAc(b1-2)[Neu5Ac(a2-3)Gal(b1-4)GlcNAc(b1-6)]Man(a1-6)[Neu5Ac(a2-3)Gal(b1-4)GlcNAc(b1-2)Man(a1-3)][GlcNAc(b1-4)]Man(b1-4)GlcNAc(b1-4)GlcNAc
# Summary of the method: as §1
# [27] = target: Neu5Ac(a2-3)Gal(b1-4)GlcNAc(b1-3)Gal
# Summary of the method: as §1
# [28] = target: Neu5Ac(a2-3)Gal(b1-4)GlcNAc(b1-3)Gal(b1-3)GlcNAc
# Summary of the method: as §1
# [29] = target: Neu5Ac(a2-3)Gal(b1-4)GlcNAc(b1-3)Gal(b1-4)GlcNAc
# Summary of the method: as §1
# [30] = target: Neu5Ac(a2-3)Gal(b1-4)GlcNAc(b1-3)Gal(b1-4)GlcNAc(b1-2)Man(a1-3)[Neu5Ac(a2-3)Gal(b1-4)GlcNAc(b1-3)Gal(b1-4)GlcNAc(b1-2)Man(a1-6)]Man(b1-4)GlcNAc(b1-4)GlcNAc
# Summary of the method: as §1
# [31] = target: Neu5Ac(a2-3)Gal(b1-4)GlcNAc(b1-3)Gal(b1-4)GlcNAc(b1-3)Gal(b1-4)GlcNAc
# Summary of the method: as §1
# [32] = target: Neu5Ac(a2-3)Gal(b1-4)GlcNAc(b1-3)Gal(b1-4)GlcNAc(b1-3)Gal(b1-4)GlcNAc(b1-2)Man(a1-3)[Neu5Ac(a2-3)Gal(b1-4)GlcNAc(b1-3)Gal(b1-4)GlcNAc(b1-3)Gal(b1-4)GlcNAc(b1-2)Man(a1-6)]GalNAc
# Summary of the method: as §1
# [33] = target: Neu5Ac(a2-3)Gal(b1-4)GlcNAc(b1-3)Gal(b1-4)GlcNAc(b1-3)GalNAc
# Summary of the method: as §1
# [34] = target: Neu5Ac(a2-3)Gal(b1-4)GlcNAc(b1-3)Gal(b1-4)GlcNAc(b1-3)[Neu5Ac(a2-3)Gal(b1-4)GlcNAc(b1-3)Gal(b1-4)GlcNAc(b1-6)]GalNAc
# Summary of the method: as §1
# [35] = target: Neu5Ac(a2-3)Gal(b1-4)GlcNAc(b1-3)Gal(b1-4)GlcNAc(b1-6)[Gal(b1-3)]GalNAc
# Summary of the method: as §1
# [36] = target: Neu5Ac(a2-3)Gal(b1-4)GlcNAc(b1-3)Gal(b1-4)[Fuc(a1-3)]GlcNAc
# Summary of the method: as §1
# [37] = target: Neu5Ac(a2-3)Gal(b1-4)GlcNAc(b1-3)GalNAc
# Summary of the method: as §1
binder,measurement,setting,value
B1,glycan array binding signal (z-score),[1],0.106
same,glycan array binding signal (z-score),[2],-1.27
same,glycan array binding signal (z-score),[3],1.49
same,glycan array binding signal (z-score),[4],0.584
same,glycan array binding signal (z-score),[5],-0.06
same,glycan array binding signal (z-score),[6],-2
same,glycan array binding signal (z-score),[7],-0.736
same,glycan array binding signal (z-score),[8],0.505
same,glycan array binding signal (z-score),[9],-0.318
same,glycan array binding signal (z-score),[10],0.496
same,glycan array binding signal (z-score),[11],-0.008
same,glycan array binding signal (z-score),[12],-0.132
same,glycan array binding signal (z-score),[13],-0.114
same,glycan array binding signal (z-score),[14],0.423
same,glycan array binding signal (z-score),[15],-0.136
same,glycan array binding signal (z-score),[16],-0.251
same,glycan array binding signal (z-score),[17],0.232
same,glycan array binding signal (z-score),Neu5Ac(a2-3)Gal(b1-4)Glc,0.086
same,glycan array binding signal (z-score),[18],-0.315
same,glycan array binding signal (z-score),[19],1.94
same,glycan array binding signal (z-score),[20],-0.657
same,glycan array binding signal (z-score),[21],-0.277
same,glycan array binding signal (z-score),[22],0.207
same,glycan array binding signal (z-score),[23],0.195
same,glycan array binding signal (z-score),[24],-0.346
same,glycan array binding signal (z-score),[25],-0.243
same,glycan array binding signal (z-score),[26],-1.18
same,glycan array binding signal (z-score),[27],0.177
same,glycan array binding signal (z-score),[28],-0.063
same,glycan array binding signal (z-score),[29],-0.268
same,glycan array binding signal (z-score),[30],0.013
same,glycan array binding signal (z-score),[31],-0.73
same,glycan array binding signal (z-score),[32],1.14
same,glycan array binding signal (z-score),[33],-0.164
same,glycan array binding signal (z-score),[34],0.849
same,glycan array binding signal (z-score),[35],0.126
same,glycan array binding signal (z-score),[36],-0.418
same,glycan array binding signal (z-score),[37],-0.136

# 2 records drawn at random from those above, as already listed:
binder,measurement,setting,value
B1,glycan array binding signal (z-score),[14],0.423
same,glycan array binding signal (z-score),[37],-0.136
